Data from US5691340A, “Benzopyran derivatives” (Adir et Compagnie, priority 1994, dated 1997).
At least one compound was matched to its structure with a doubt left.

Molecular target: σ receptor
Test: In vitro binding to σ receptors ([3H]-DTG or [3H]-3-PPP)
Design: species or system calf
Conditions: [3H]-DTG
Method: The products are tested on each receptor at 5 different concentrations (10^-5 M, 10^-6 M, 10^-7 M, 10^-8 M and 10^-9 M) in triplicate. When the binding coefficient IC50 (concentration of product which displaces 50% of the radioligand) is less than a concentration of 10^-6 M, the Ki is measured by using 12 concentrations of the product.
The receptors for which the affinity of the compounds of the invention was determined, the tissue chosen, the concentration used for determining the non-specific fraction and the radioligand used to label the receptor are shown in Table A.
10^-6 M Calf hippocampus

In the case of `CC(CN1CCN(Cc2ccccc2)CC1)Oc1ccccc1` (stereo not shown) [Example 9, 1-(2-PHENOXYPROPYL)-4-BENZYLPIPERAZINE], the IC50 is reported as 4 nM.
